For one molecule, binding results are on record in article PMC5963671, “Hes1 inhibitor isolated by target protein oriented natural products isolation (TPO-NAPI) of differentiation activators of neural stem cells† †Electronic supplementary information (ESI) available. See DOI: 10.1039/c5sc03540f” (Chemical Science, 2015).

These are yes or no findings as the source states them, for the method shown. Binding seen in cells or lysates may run through a third protein. Some results given as binding are weak or reduced against the parent protein; the word gives no strength. Where a sequence is shown, tags or fusion partners need not be part of it.

The target of the test is HA- and Flag-tagged Hes1 (UniProt Q04666). Briefly: co-IP; HA- and Flag-tagged Hes1 co-expressed in C3H10T1/2 cells; IP with HA antibody beads, blots with each antibody; cells untreated or treated with agalloside (2) at 5 and 10 μM.

B1: HA- and Flag-tagged Hes1 (protein, UniProt Q04666 1-281)
chain: MPADIMEKNSSSPVAATPASVNTTPDKPKTASEHRKSSKPIMEKRRRARINESLSQLKTLILDALKKDSSRHSKLEKADILEMTVKHLRNLQRAQMTAALSTDPSVLGKYRAGFSECMNEVTRFLSTCEGVNTEVRTRLLGHLANCMTQINAMTYPGQAHPALQAPPPPPPSGPGGPQHAPFAPPPPLVPIPGGAAPPPGSAPCKLGSQAGEAAKVFGGFQVVPAPDGQFAFLIPNGAFAHSGPVIPVYTSNSGTSVGPNAVSPSSGSSLTADSMWRPWRN
As for B1, the binding entry is given as “binds”.
